{"source": "the supplement of paper PMC5949888", "note": "Most values lie at the floor of the assay. Slopes are relative: functional sequences can read slightly below zero.", "data": [{"test_system": "Saccharomyces cerevisiae PS128 hsf1 delta, HSF1(1-493) fusion", "assay": "growth estimate (transactivation domain function in HSF1 fusion, heat-shock survival) (a.u. (slope of normalised read count over time)); higher = stronger growth at 37°C, i.e. more transactivation activity", "conditions": "library: random library", "values": [{"substance": "VGGIFRAMDEMNSIVSGE", "growth estimate": "< -0.25"}, {"substance": "CAVVIPMDLSIEAKAHVLTS", "growth estimate": "< -0.25"}, {"substance": "GESHKVQIYRTTG", "growth estimate": "< -0.25"}, {"substance": "VNPIHEDQHGIAGVYGPSGH", "growth estimate": "< -0.25"}, {"substance": "AIDSRLDDVLRWEIPRAGTS", "growth estimate": -0.217}, {"substance": "LTRIDTCAVIADCVGVQGPG", "growth estimate": "< -0.25"}, {"substance": "PIRGIWNSDRPNSVP", "growth estimate": "< -0.25"}, {"substance": "LSRQ", "growth estimate": "< -0.25"}, {"substance": "SINHSAP", "growth estimate": "< -0.25"}, {"substance": "GFPES", "growth estimate": "< -0.25"}, {"substance": "NHLCSRLGIVDAEAPGAVVR", "growth estimate": "< -0.25"}, {"substance": "WSQRVYKLHNPQRVRSISVR", "growth estimate": "< -0.25"}, {"substance": "FSAC", "growth estimate": "< -0.25"}, {"substance": "LIRGQHSVWSLRHSSNVMPR", "growth estimate": "< -0.25"}, {"substance": "GNNYLKPLGATGSN", "growth estimate": "< -0.25"}, {"substance": "LERRRCVARVR", "growth estimate": "< -0.25"}, {"substance": "WHLGFGTPIPRLSWRGYRLF", "growth estimate": "< -0.25"}, {"substance": "RFG", "growth estimate": "< -0.25"}, {"substance": "GTHFLVTGGNNGPALSGTSR", "growth estimate": "< -0.25"}, {"substance": "IVIPRAFQGYFPTTRALFMG", "growth estimate": "< -0.25"}, {"substance": "YTEIYH", "growth estimate": "< -0.25"}, {"substance": "DTTTSRS", "growth estimate": "< -0.25"}, {"substance": "TVVCRRA", "growth estimate": "< -0.25"}, {"substance": "PPSLKYGTSQGDDVRIRKKS", "growth estimate": "< -0.25"}, {"substance": "LRLDGGRGKSLHVFREMNLL", "growth estimate": "< -0.25"}, {"substance": "LLQLVEETPKSSVLTIVFRG", "growth estimate": "< -0.25"}, {"substance": "RIPVILCFVGAHPQGVSQLI", "growth estimate": "< -0.25"}, {"substance": "EDGLCHNSSWCGGWLISIEG", "growth estimate": "< -0.25"}, {"substance": "LLEAILAQGIWKST", "growth estimate": "< -0.25"}, {"substance": "HQLYLSHEKRTRIKGTVQHG", "growth estimate": "< -0.25"}, {"substance": "HNI", "growth estimate": "< -0.25"}, {"substance": "QSVEST", "growth estimate": "< -0.25"}, {"substance": "VRGNPQTLAS", "growth estimate": "< -0.25"}, {"substance": "RVRLISTRVVFLTECYPVLT", "growth estimate": "< -0.25"}, {"substance": "RQLVSVPIFVAGSRDNPVKD", "growth estimate": "< -0.25"}, {"substance": "FSSLGRDGKRWRE", "growth estimate": "< -0.25"}, {"substance": "ATVSPPLIVSWRVANLLERP", "growth estimate": "< -0.25"}, {"substance": "REQDPATCGGTPS", "growth estimate": "< -0.25"}, {"substance": "GFRYGGRYRDSSKTCYVGQH", "growth estimate": "< -0.25"}, {"substance": "LREHQGPEGASGYAPVGSHT", "growth estimate": -0.243}, {"substance": "SAQALLGSGVGTNH", "growth estimate": "< -0.25"}, {"substance": "GQRGDFRQW", "growth estimate": "< -0.25"}, {"substance": "WGARQGDLRDI", "growth estimate": "< -0.25"}, {"substance": "PVIGPQSRTDGVWGLVPVSR", "growth estimate": "< -0.25"}, {"substance": "FTLRELQIWLRSLLHCLNTR", "growth estimate": "< -0.25"}, {"substance": "VGGRFVFSRSNSFGLDGGEM", "growth estimate": "< -0.25"}, {"substance": "YGCMPNVCPQLRTSQ", "growth estimate": "< -0.25"}, {"substance": "TRRRSCSVCPLRYPGSTFSW", "growth estimate": "< -0.25"}, {"substance": "SFSLVFTRA", "growth estimate": "< -0.25"}, {"substance": "TSRRILVPRLCQGRNGMAKG", "growth estimate": "< -0.25"}, {"substance": "AGA", "growth estimate": "< -0.25"}, {"substance": "REGGDP", "growth estimate": "< -0.25"}, {"substance": "TQESPVVRWSGLWR", "growth estimate": "< -0.25"}, {"substance": "VEFQNVRIRWDAVHCGHASR", "growth estimate": "< -0.25"}, {"substance": "VWR", "growth estimate": "< -0.25"}, {"substance": "SNLIERAGPLHTQITVECRP", "growth estimate": "< -0.25"}, {"substance": "RESERQHQDAGH", "growth estimate": "< -0.25"}, {"substance": "PPVYVRDIVIFFSRPLSPED", "growth estimate": "< -0.25"}, {"substance": "LYSGHL", "growth estimate": "< -0.25"}, {"substance": "RPAGKRTPRRTGAS", "growth estimate": "< -0.25"}, {"substance": "VPLHIRCYYALRFYLTIKCS", "growth estimate": "< -0.25"}, {"substance": "FCTELQGRTRYSHHHLREYS", "growth estimate": "< -0.25"}, {"substance": "TGISGHYKANGAVLDKIRKN", "growth estimate": "< -0.25"}, {"substance": "RGYIHSYDGGADASVHNIRN", "growth estimate": "< -0.25"}, {"substance": "EGVVGLSKAWVARVHHVVGS", "growth estimate": "< -0.25"}, {"substance": "FVLRYSSTERDGITA", "growth estimate": "< -0.25"}, {"substance": "LIVIEYVTIASLLGSRDIGS", "growth estimate": "< -0.25"}, {"substance": "QLLPGPNCC", "growth estimate": "< -0.25"}, {"substance": "TYPLDELDGRIAYRIRLDNI", "growth estimate": "< -0.25"}, {"substance": "SKFRNYTGISENLSVSRLMD", "growth estimate": "< -0.25"}, {"substance": "THGRWVLGFGPDKSVIQ", "growth estimate": "< -0.25"}, {"substance": "KTPHDRYLTLRVKG", "growth estimate": "< -0.25"}, {"substance": "SGIRTS", "growth estimate": "< -0.25"}, {"substance": "LKVVDV", "growth estimate": "< -0.25"}, {"substance": "YALQGWEGRLLPYVDEGSLG", "growth estimate": "< -0.25"}, {"substance": "SSPGGANESRNTF", "growth estimate": "< -0.25"}, {"substance": "EERRVVRSAR", "growth estimate": "< -0.25"}, {"substance": "SKMEGPFIILYWQMSRPTCR", "growth estimate": "< -0.25"}, {"substance": "ATCRFSTIHDPQCQQFSCLP", "growth estimate": "< -0.25"}, {"substance": "SSYTRPMELGLSQSPVISQA", "growth estimate": "< -0.25"}, {"substance": "RYNGNPHAAGCGSHGWLPLH", "growth estimate": "< -0.25"}, {"substance": "SLVEFGFALESGPQALESPV", "growth estimate": "< -0.25"}, {"substance": "TTRMKDRQMRPLGERRRSNG", "growth estimate": "< -0.25"}, {"substance": "LARVLHRILTKPSARRDQLM", "growth estimate": "< -0.25"}, {"substance": "DSRQRGDVR", "growth estimate": "< -0.25"}, {"substance": "PSWKHGPYNQYM", "growth estimate": "< -0.25"}, {"substance": "TLSGSGSSLWASGDGSYSWA", "growth estimate": "< -0.25"}, {"substance": "VHKYDGTRIW", "growth estimate": "< -0.25"}, {"substance": "RGNQ", "growth estimate": "< -0.25"}, {"substance": "LSSLTQTLSPVEHAWSPLAP", "growth estimate": "< -0.25"}, {"substance": "LVPPEGIRWEGMTSIIIARM", "growth estimate": "< -0.25"}, {"substance": "HDTTS", "growth estimate": "< -0.25"}, {"substance": "VGHSSVIVRKTVRSHSLRRL", "growth estimate": "< -0.25"}, {"substance": "QGR", "growth estimate": "< -0.25"}, {"substance": "GGSFPGPNLDATSKRKRSAI", "growth estimate": "< -0.25"}, {"substance": "LTDS", "growth estimate": "< -0.25"}, {"substance": "IGLLRSLK", "growth estimate": "< -0.25"}, {"substance": "NMLPRSGHSRAPILEFW", "growth estimate": "< -0.25"}, {"substance": "LREDSGANLAGLRLFCLLAT", "growth estimate": "< -0.25"}, {"substance": "PWGSQDAHCARWCIFG", "growth estimate": "< -0.25"}, {"substance": "IANSGRSGSC", "growth estimate": "< -0.25"}, {"substance": "HVYCAGI", "growth estimate": -0.245}, {"substance": "WWWKVLADYFGVAGTTDTKG", "growth estimate": "< -0.25"}, {"substance": "IWSVEGSGSGDVREA", "growth estimate": "< -0.25"}, {"substance": "SEGGASRGLIVNSH", "growth estimate": "< -0.25"}, {"substance": "NVLCTVRCRV", "growth estimate": "< -0.25"}, {"substance": "VSLP", "growth estimate": "< -0.25"}, {"substance": "LRSDMLWEALRNPGGRGRRV", "growth estimate": "< -0.25"}, {"substance": "LWSGCCRCTIGGAQLSIYVH", "growth estimate": "< -0.25"}, {"substance": "VTVMPRKDAAYS", "growth estimate": "< -0.25"}, {"substance": "DVHKGANAPPPFRDLNPLTR", "growth estimate": "< -0.25"}, {"substance": "VICSDRCCE", "growth estimate": "< -0.25"}, {"substance": "LPRNYVRDKCFSLSGAGNEE", "growth estimate": "< -0.25"}, {"substance": "RAGPRARFVVA", "growth estimate": "< -0.25"}, {"substance": "LLVVHPYVD", "growth estimate": "< -0.25"}, {"substance": "FYANWSGCSNK", "growth estimate": "< -0.25"}, {"substance": "YNLGP", "growth estimate": "< -0.25"}, {"substance": "NGFLPSTEILAK", "growth estimate": "< -0.25"}, {"substance": "GGP", "growth estimate": "< -0.25"}, {"substance": "SATWIALRTRVGLNSLGDLL", "growth estimate": "< -0.25"}, {"substance": "KIQKTDGDHTLSSRNLGGAM", "growth estimate": -0.222}, {"substance": "LRAERHCHDEVY", "growth estimate": "< -0.25"}, {"substance": "YGLSGSCWWLSGGQERQSVR", "growth estimate": "< -0.25"}, {"substance": "VIGV", "growth estimate": "< -0.25"}, {"substance": "CTAVRLSTYVVR", "growth estimate": "< -0.25"}, {"substance": "LEPRPSRPERFSNDSCLTYR", "growth estimate": "< -0.25"}, {"substance": "KQVQRVGDASSISRREATPA", "growth estimate": "< -0.25"}, {"substance": "VAGPQ", "growth estimate": "< -0.25"}, {"substance": "SGLTCLCCA", "growth estimate": "< -0.25"}, {"substance": "QWVANGHLLVPDYKYRGRSR", "growth estimate": "< -0.25"}, {"substance": "SSGSLGRQRCLQTAKRWYIA", "growth estimate": "< -0.25"}, {"substance": "LPCSILGCSCSCRSDYRPLR", "growth estimate": "< -0.25"}, {"substance": "VTKIHVASVLEASRHISRYV", "growth estimate": "< -0.25"}, {"substance": "SYVGHDYNSRTFAERRTVCR", "growth estimate": "< -0.25"}, {"substance": "SLIWGQIVIIPWHPLG", "growth estimate": "< -0.25"}, {"substance": "WTLELLDQTDLICATQDSSY", "growth estimate": -0.146}, {"substance": "LWSGCFSYGESACAPAPWEV", "growth estimate": "< -0.25"}, {"substance": "AIRGRGPGSVKLLRGRRTGN", "growth estimate": -0.233}, {"substance": "HTCQAKIVT", "growth estimate": "< -0.25"}, {"substance": "GQGSVAYA", "growth estimate": "< -0.25"}, {"substance": "LVVSVIMQPNLGTSLFKT", "growth estimate": "< -0.25"}, {"substance": "HSVSAVCGSLLQYNAYVSLE", "growth estimate": "< -0.25"}, {"substance": "PVGDVLVGGASEKRQAYAHL", "growth estimate": "< -0.25"}, {"substance": "ALGLKGREITFSFFAVSLLT", "growth estimate": "< -0.25"}, {"substance": "SKW", "growth estimate": "< -0.25"}, {"substance": "GWFGTNP", "growth estimate": "< -0.25"}, {"substance": "GTVFV", "growth estimate": "< -0.25"}, {"substance": "IPLALRVLNSSFGGTGEFRR", "growth estimate": -0.241}, {"substance": "PAYGFH", "growth estimate": "< -0.25"}, {"substance": "SPWAHRRSVPKVFTVVKNGE", "growth estimate": "< -0.25"}, {"substance": "IARRGRPRSHPTSLQYQGGR", "growth estimate": "< -0.25"}, {"substance": "NGFRLGGGQLCVQHIVLGIV", "growth estimate": "< -0.25"}, {"substance": "LIGFIIKDAPS", "growth estimate": -0.243}, {"substance": "NGRALLKASCLIYTQLVRFL", "growth estimate": "< -0.25"}, {"substance": "IRRCGPDAYYRLSVPRTC", "growth estimate": "< -0.25"}, {"substance": "YNCAIRSFLAW", "growth estimate": -0.246}, {"substance": "MIWAIIVNAASS", "growth estimate": "< -0.25"}]}]}
